Experimental data as given in PubChem BioAssay AID1439 (NMMLSC, 2008).
About 770 (0.35%) of roughly 220,000 compounds were called active. This list was built around the results that the source calls inconclusive (neither active nor inactive); the mix of calls is not that of the screen. No stated cut-off is given here; in the data, active means binding response below about 49% or above about 150%; inconclusive means no clear call, values can overlap the other calls; inactive means in between.

Amino acid sequences for entries named in this document (tags omitted).
UniProt P09471, whole entry, looked up: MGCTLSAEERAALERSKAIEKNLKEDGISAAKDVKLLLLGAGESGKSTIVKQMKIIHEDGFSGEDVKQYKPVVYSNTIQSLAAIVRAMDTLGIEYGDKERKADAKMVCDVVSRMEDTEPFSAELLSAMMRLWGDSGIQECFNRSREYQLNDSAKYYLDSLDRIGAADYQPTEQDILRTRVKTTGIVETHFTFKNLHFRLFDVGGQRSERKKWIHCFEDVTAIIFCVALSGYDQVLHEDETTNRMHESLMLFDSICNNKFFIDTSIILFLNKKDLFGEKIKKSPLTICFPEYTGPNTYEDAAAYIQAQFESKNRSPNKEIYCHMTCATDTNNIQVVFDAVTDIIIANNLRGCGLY

Molecular target: Guanine nucleotide-binding protein G(o) subunit alpha (Homo sapiens) (UniProt P09471)
Test: RGS7-Galphao binding modulators, primary screen, biochemical, multiplexed bead flow cytometry (AID 1439);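 further: fluorescent Galphao held in activated GDP-AlF4 state binding bead-coupled RGS7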
Settings: at 10 µM, actives lie on both sides

Row | Structure (SMILES) | binding response (% of control)
1 | COc1cc(OC)cc(C(=O)NCCSC2CCCCC2)c1 | inconclusive: 73.1%
2 | CN(C(=O)c1ccc2c(c1)CCN2S(C)(=O)=O)c1ccccc1 | inconclusive: 87.4%
3 | COc1ccc(/C=C(\C#N)C(=O)Nc2ccc3[nH]c(=O)[nH]c3c2)cc1 | inconclusive: 53%
4 | Cc1ccc(S(=O)(=O)N2CCN(C(=O)c3cccc(F)c3)CC2)cc1 | active: 264% [activator]
5 | Cn1c(=O)c2[nH]c(N3CCCCC3)nc2n(C)c1=O | inconclusive: 59.4%
6 | COc1ccc(-c2cc(-c3cccnc3)c(C#N)c(N)n2)cc1 | inconclusive: 106%
7 | COc1ccc(/C=N/NC(=O)C2(C)NC(C)(C)Cc3ccccc32)cc1 (stereo not given) | inactive: 104%
8 | CNS(=O)(=O)c1cccc(C(=O)OCC(=O)Nc2ccc(N3CCCCC3)cc2)c1 | inconclusive: 101%
9 | CCOC(=O)C1=C(N)N2C(=O)C(C)SC2=C(C(=O)OCC)C1c1cc(OC)c(OC)c(OC)c1 (stereo not given) | inconclusive: 132%
10 | CS(=O)(=O)N1CCSC1c1ccc(Br)cc1 (stereo not given) | inconclusive: 211%
11 | CCC1(C)CC(C(N)=S)CCO1 (stereo not given) | inconclusive: 78.2%
12 | COC(=O)/C=C/c1ccc(-n2cncn2)cc1 | inconclusive: 94%
13 | O=S(=O)(c1ccc(NC(=S)N/N=C/c2ccc(O)c(O)c2)cc1)N1CCOCC1 | inconclusive: 63.9%
14 | CO/N=C/C(NC(=O)c1ccc(C(F)(F)F)cc1)C(=O)OC (stereo not given) | inconclusive: 97.3%
15 | O=C(/C(N=Nc1cccc(C(F)(F)F)c1)=C(/O)c1cccs1)C(F)(F)F | inconclusive: 881%
16 | COc1cccc2c(Cl)c(CCCl)c(C)nc12 | inactive: 96.5%
17 | Cn1c(N)c(C(=O)COC(=O)CCCN2C(=O)c3ccccc3C2=O)c(=O)n(C)c1=O | inconclusive: 110%
18 | O=C(CN1CCN(Cc2ccc(Cl)cc2)C1=O)NCCCN1CCN(c2ccc(F)cc2)CC1 | inactive: 96.7%
19 | CC(C)CCN1CC(C(=O)NCCC2=CCCCC2)CC1=O (stereo not given) | inactive: 99.4%
20 | NC(=O)c1ccsc1NC(=O)C1CC1 | inconclusive: 80.3%
21 | Cc1cc(C)c(C(=O)COC(=O)CCNS(=O)(=O)c2c(Cl)cccc2Cl)cc1C | inactive: 104%
22 | CCC(=O)NC(c1ccc(OC)cc1)c1c(O)ccc2ccccc12 (stereo not given) | inactive: 103%
23 | CCCCOc1ccc(/C=N/NC(=O)C2CCCNC2=O)cc1 (stereo not given) | inconclusive: 29.2%
24 | Cc1ccc([N+](=O)[O-])c(C(=O)Nc2cccnc2Cl)c1 | inconclusive: 107%
25 | Cn1nnnc1Sc1ccc(C(=O)O)cc1[N+](=O)[O-] | inconclusive: 91.7%

Filtered by structure: the entries above containing fluorine
Row | Structure (SMILES) | binding response (% of control)
4 | Cc1ccc(S(=O)(=O)N2CCN(C(=O)c3cccc(F)c3)CC2)cc1 | active: 264% [activator]
14 | CO/N=C/C(NC(=O)c1ccc(C(F)(F)F)cc1)C(=O)OC (stereo not given) | inconclusive: 97.3%
15 | O=C(/C(N=Nc1cccc(C(F)(F)F)c1)=C(/O)c1cccs1)C(F)(F)F | inconclusive: 881%
18 | O=C(CN1CCN(Cc2ccc(Cl)cc2)C1=O)NCCCN1CCN(c2ccc(F)cc2)CC1 | inactive: 96.7%
